Source: the supplement of paper PMC10403144
The list shows a part of the results.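 The calls were made as follows: active = mitochondrial OCR inhibition above 30% at 1 uM; inactive = 30% or less.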 Many values rest on one well or one pass, so single values are uncertain.

system: Toxoplasma gondii RH tachyzoites; assay: inhibition of mitochondrial O2 consumption rate (% inhibition (relative to pre-injection OCR and atovaquone/antimycin A control)); higher = stronger ETC inhibition; conditions: 1 µM; injection port (sequential injection order): C

Compound	inhibition of mitochondrial O2 consumption rate
c1cncc(NCc2ccc(-c3cc4ccncc4cc3OC3CCNCC3)s2)c1	inactive: -29.2
CC(C)(C)C(=O)N(CCCCCCN1C[C@H](O)[C@@H](O)[C@H](O)[C@H]1CO)C1CCCCCC1	inactive: -7.2
Nc1ncnc2c1c(Cc1cccc3ccccc13)nn2CC1CCNCC1	inactive: -24.9
COc1ccc(-c2nnc3ccc(-c4cccc(C(C)C)c4)cn23)cc1OC	inactive: -8.29
COc1cc(NC(=O)Cc2nn(C)c(=O)c3ccccc23)ccc1Cl	inactive: -3.01
CC(=O)Nc1ccc(-c2noc(CC3CCCN(Cc4cccc(F)c4C)C3)n2)cc1 (stereo unspecified)	inactive: -6.11
CCn1ncc2c(NC3CCOCC3)c(CNC(=O)c3ccnn3C)c(C)nc21	inactive: -4.14
CS(=O)(=O)N1CCC(Cn2nc(Cc3cccc4ccccc34)c3c(N)ncnc32)CC1	inactive: -9.11
O=C(c1ccc(F)cc1)N(CCNc1ccccc1)c1ccccc1	inactive: -10.1
CN1CCN(CCCOc2ncc(Nc3ncc(-c4ccc(C(F)(F)F)c(F)c4)nc3C(N)=O)cn2)CC1	inactive: -2.95
CCCn1c(NC(=O)c2ccc3ccccc3n2)nc2ccccc21	inactive: -15.6

Molecules above containing an aryl methoxy group:
Compound	inhibition of mitochondrial O2 consumption rate
COc1ccc(-c2nnc3ccc(-c4cccc(C(C)C)c4)cn23)cc1OC	inactive: -8.29
COc1cc(NC(=O)Cc2nn(C)c(=O)c3ccccc23)ccc1Cl	inactive: -3.01
